Measured values from US20160289339A1.
These are yes or no findings as the source states them, for the method shown. Some entries that bind do so weakly or less than the wild type.

Protein sequences, listed by entry. Tags and fused reporters are not part of them. Lines headed by an entry give the natural chain unless they say otherwise; changes in a name come on top.
UniProt P01876: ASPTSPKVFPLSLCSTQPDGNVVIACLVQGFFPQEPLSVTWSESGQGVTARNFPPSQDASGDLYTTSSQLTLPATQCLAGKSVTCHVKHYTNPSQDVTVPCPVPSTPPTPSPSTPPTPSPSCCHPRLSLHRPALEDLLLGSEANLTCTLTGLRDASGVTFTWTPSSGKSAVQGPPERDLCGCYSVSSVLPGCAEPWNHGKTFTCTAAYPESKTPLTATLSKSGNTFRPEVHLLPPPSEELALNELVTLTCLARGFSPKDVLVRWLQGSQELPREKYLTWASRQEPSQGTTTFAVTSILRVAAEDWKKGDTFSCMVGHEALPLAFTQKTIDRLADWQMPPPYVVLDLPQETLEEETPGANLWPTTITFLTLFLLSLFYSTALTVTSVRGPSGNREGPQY

Biological target: mα1.FcL-456C expressed on Ramos cells (human) (UniProt P01876)
Assay: flow cytometry on Ramos/mα1.FcL-456C cells, 1 and 10 µg/ml

binding: binds
B1: anti-migis-α mAb 8G7 (antibody, V domains shown)
VH: EVQLQESGPSLVKPSQTLSLTCSVTGDSITNGYWNWIRKFPGNKLEYMGYISYSGSTYYNPSLKSRIFITRDTSKNQYYLQLNSVTTEDTAIYYCARWLGGRAYWGQGTTLIVSS
VL: DIVMTQSQKFMSTSVGDRVSVTCKASQNVGTNVVWYQQKPGQSPKTLIYSASRRFSGVPDRFTGSGSGTDFTLTISNVQSEDLAEYFCQQYNSYPLTFGAGTKLELK
